Some of the results follow.

Amino acid sequences for entries named in this document (tags omitted). A change or cut given only in a name is not applied to a line headed by its entry.
UniProt Q70Z53: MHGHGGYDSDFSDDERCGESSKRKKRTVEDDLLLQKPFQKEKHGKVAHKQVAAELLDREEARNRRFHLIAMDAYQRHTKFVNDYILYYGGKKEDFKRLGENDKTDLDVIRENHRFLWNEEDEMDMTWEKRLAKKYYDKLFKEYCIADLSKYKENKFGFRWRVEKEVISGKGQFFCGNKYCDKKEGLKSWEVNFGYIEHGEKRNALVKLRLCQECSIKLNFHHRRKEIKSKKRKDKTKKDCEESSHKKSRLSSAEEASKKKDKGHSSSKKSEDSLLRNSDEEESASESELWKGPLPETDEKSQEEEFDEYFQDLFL
UniProt Q6ZNW5: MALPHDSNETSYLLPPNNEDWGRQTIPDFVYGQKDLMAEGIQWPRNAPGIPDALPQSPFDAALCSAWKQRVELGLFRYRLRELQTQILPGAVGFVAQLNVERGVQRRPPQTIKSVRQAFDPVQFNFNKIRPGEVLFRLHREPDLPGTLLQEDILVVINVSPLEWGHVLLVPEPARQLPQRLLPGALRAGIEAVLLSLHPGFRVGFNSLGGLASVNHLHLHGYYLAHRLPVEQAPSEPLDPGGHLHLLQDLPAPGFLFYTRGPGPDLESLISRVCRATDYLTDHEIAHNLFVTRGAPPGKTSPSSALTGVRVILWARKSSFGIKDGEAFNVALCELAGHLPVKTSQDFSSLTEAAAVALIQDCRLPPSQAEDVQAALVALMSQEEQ
UniProt Q10472: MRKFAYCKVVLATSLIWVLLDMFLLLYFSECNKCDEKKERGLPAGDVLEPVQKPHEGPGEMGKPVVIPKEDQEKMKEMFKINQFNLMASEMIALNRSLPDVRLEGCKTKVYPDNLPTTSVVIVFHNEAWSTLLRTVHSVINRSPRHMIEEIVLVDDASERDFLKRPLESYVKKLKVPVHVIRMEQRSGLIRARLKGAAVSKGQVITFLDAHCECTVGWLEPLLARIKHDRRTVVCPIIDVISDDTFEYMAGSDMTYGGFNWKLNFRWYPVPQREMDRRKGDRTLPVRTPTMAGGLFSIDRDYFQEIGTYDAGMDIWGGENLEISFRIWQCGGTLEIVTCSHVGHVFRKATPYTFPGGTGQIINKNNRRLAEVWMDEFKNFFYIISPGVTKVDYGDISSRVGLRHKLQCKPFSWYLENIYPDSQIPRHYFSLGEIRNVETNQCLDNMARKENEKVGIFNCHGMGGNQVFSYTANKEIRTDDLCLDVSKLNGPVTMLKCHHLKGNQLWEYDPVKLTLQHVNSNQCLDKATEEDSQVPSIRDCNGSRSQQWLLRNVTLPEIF
UniProt P51114, whole entry, looked up: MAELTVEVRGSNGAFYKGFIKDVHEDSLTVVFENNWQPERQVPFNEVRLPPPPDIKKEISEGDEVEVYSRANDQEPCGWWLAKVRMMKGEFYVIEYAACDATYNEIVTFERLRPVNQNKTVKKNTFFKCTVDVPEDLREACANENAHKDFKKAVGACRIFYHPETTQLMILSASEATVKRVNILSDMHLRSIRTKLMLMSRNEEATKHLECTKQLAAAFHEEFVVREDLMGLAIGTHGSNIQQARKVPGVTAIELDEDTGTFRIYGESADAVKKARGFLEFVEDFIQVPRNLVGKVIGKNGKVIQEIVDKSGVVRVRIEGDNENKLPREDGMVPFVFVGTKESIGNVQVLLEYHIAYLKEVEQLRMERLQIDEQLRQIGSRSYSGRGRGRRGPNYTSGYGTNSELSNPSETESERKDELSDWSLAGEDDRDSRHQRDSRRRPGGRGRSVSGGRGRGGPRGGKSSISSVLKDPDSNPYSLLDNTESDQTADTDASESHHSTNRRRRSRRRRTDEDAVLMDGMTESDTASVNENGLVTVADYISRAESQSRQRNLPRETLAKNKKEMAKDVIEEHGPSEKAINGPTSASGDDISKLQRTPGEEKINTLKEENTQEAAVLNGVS
UniProt Q96AE4: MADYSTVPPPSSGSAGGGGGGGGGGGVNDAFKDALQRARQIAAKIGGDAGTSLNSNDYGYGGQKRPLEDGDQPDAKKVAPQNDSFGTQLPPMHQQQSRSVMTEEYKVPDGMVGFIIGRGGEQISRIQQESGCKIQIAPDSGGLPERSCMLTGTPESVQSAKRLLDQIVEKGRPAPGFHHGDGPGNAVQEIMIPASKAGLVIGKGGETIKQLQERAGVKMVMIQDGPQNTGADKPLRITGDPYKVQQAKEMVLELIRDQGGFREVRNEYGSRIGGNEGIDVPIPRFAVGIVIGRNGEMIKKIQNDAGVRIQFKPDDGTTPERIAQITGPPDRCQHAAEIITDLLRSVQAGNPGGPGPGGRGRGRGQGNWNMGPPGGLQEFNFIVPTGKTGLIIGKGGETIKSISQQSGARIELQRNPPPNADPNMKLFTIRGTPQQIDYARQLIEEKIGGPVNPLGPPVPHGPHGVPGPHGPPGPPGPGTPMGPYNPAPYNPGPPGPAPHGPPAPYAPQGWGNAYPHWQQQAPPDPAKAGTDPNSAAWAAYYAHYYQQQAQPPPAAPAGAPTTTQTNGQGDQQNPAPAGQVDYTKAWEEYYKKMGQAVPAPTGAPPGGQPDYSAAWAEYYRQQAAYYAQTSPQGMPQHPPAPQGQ
UniProt P60520, whole entry, looked up: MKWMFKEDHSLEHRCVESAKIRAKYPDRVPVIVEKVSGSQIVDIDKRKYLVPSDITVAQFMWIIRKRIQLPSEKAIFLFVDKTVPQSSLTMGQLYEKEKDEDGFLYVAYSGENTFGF
UniProt Q06546: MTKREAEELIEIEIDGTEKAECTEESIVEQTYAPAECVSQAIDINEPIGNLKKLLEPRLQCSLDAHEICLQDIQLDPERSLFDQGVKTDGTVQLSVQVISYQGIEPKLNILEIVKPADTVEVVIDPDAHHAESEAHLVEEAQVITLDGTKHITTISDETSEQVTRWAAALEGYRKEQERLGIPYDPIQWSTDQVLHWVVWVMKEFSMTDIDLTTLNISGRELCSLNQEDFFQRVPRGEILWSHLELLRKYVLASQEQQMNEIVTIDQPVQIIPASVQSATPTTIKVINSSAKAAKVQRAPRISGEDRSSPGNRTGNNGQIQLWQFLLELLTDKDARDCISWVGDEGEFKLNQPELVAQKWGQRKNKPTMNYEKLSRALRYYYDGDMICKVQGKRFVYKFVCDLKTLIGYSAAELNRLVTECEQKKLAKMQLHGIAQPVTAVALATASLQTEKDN
UniProt Q13069: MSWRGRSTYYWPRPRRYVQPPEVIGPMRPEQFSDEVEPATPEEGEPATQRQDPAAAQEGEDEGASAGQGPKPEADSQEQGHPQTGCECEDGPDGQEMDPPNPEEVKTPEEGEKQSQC
UniProt Q9BTY2: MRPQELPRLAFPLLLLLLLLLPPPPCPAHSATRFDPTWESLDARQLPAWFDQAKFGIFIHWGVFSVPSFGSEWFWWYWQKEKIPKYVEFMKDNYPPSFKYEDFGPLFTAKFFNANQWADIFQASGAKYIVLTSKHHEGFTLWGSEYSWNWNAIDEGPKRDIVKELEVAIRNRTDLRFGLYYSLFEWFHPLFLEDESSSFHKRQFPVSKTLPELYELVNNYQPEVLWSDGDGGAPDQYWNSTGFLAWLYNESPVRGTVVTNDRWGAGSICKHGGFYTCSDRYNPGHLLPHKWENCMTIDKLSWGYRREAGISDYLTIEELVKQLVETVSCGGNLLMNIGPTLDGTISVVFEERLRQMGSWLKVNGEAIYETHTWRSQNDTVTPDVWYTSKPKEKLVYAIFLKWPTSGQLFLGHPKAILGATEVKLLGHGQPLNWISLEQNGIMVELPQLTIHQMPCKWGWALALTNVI
UniProt O14976: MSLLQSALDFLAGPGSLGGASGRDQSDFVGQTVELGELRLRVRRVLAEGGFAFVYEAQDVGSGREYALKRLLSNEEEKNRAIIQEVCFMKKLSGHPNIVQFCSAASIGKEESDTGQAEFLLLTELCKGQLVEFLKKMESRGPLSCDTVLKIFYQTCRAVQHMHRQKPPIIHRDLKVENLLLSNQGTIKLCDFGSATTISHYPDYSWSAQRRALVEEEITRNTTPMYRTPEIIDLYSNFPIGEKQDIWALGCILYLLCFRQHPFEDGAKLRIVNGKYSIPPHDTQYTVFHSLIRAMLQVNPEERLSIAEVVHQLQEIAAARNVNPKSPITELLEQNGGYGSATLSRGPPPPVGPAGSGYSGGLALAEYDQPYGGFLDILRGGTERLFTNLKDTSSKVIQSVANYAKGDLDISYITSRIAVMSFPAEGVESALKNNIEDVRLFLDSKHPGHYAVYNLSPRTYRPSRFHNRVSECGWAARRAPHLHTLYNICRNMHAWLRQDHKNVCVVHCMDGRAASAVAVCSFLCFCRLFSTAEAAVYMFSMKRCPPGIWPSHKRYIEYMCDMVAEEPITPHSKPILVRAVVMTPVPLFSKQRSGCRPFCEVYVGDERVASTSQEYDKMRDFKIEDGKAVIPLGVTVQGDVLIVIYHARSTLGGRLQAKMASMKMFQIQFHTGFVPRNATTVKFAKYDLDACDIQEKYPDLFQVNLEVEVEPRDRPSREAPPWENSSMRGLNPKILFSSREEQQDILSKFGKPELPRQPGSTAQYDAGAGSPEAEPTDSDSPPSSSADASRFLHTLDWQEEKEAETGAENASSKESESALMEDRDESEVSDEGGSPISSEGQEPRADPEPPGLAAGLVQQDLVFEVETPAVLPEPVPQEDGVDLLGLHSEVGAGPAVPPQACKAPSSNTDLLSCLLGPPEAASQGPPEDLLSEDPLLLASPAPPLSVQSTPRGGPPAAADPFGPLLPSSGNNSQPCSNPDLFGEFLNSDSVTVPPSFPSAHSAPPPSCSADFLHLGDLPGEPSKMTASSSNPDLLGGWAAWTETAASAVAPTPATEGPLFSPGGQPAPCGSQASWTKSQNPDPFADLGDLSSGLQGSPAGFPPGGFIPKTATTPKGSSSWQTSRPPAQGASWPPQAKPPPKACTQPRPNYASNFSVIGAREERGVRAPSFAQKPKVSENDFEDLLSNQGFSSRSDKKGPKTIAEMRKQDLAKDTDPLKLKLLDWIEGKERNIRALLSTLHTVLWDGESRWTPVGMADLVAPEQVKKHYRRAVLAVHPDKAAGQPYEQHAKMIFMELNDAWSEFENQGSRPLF
UniProt P0CL80: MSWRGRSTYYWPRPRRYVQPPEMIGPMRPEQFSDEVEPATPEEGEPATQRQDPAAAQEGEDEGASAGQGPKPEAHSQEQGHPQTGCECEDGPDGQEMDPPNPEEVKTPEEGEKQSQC
UniProt Q92947: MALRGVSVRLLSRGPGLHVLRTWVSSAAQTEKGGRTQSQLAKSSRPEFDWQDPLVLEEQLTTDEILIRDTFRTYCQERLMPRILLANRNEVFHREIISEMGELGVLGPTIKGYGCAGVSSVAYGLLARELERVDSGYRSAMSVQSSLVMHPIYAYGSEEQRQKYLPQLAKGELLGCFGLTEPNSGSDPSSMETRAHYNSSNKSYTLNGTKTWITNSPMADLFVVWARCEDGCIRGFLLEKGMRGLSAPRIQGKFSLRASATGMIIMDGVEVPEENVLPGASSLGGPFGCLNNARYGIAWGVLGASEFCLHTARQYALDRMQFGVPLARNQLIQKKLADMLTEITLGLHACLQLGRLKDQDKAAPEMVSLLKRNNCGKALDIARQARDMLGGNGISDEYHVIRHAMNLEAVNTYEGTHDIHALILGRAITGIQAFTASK
UniProt Q9UQC2, whole entry, looked up: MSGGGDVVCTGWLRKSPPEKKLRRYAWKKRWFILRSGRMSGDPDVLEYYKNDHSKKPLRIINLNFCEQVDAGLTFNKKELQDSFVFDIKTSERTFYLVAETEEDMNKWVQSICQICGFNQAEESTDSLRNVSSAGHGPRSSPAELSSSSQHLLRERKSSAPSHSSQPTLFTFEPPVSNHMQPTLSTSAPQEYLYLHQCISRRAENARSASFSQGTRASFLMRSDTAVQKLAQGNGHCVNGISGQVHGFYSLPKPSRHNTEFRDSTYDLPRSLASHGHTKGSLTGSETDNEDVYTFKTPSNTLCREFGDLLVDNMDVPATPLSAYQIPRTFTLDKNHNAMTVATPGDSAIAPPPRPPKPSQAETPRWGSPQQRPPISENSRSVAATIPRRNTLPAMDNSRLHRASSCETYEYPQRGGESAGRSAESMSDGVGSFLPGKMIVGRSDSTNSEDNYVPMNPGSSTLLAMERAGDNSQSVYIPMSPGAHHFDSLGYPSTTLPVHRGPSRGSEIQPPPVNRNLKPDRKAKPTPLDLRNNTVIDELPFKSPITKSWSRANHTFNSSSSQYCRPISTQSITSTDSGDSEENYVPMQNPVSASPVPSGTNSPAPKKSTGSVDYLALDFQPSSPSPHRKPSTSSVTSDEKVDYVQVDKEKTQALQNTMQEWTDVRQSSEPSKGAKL
UniProt P04406: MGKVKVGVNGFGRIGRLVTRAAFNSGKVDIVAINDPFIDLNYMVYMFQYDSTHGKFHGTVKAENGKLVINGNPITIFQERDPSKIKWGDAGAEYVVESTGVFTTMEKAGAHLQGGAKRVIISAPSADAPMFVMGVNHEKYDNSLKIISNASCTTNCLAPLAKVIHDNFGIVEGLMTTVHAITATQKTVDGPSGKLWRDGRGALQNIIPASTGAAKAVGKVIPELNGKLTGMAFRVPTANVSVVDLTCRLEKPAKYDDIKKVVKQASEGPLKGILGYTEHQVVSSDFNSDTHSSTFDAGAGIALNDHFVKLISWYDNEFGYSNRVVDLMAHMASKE

Compound in one assay: O=C1NC(=O)C(c2cnc3ccccn23)=C1c1cn2c3c(cc(F)cc13)CN(C(=O)N1CCCCC1)CC2
Briefly: log2 fold change, soluble protein after heating vs DMSO (PISA); higher = thermal stabilisation; K562 lysate, 10 uM; active = over 0.2 and 3.5 SD of the protein, either way, in both replicates (recomputed). Summed up:
(§1)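 Log-two fold change in thermal stability relative to solvent controls is reported from duplicates. For each sample, crude K562 extract from dounce-homogenised pellets in PBS pH 7.4 with 1 mM MgCl2, at 1 mg/mL protein, was treated with 10 μM compound for 30 min. Aliquots heated for 3 min across 48°C-58°C were pooled, brought to 0.5% NP-40 at 4°C and cleared at 21,000xg for 90 min. The supernatant was quantified by TMTpro 16plex LC-MS/MS with channel sums equalised.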
As to GGA2 (UniProt Q9UJY4), the log2 fold change was inactive: 0.022.

Turning to FRA10AC1 (UniProt Q70Z53), the log2 fold change is inactive: -0.052.

Regarding GDI1 (UniProt P31150), the log2 fold change was inactive: -0.009.

With GDPGP1 (UniProt Q6ZNW5), the log2 fold change was inactive: 0.042.

Consider GCFC2 (UniProt P16383), for which the log2 fold change is inactive: 0.026.

Consider GALNT1 (UniProt Q10472), for which the log2 fold change is inactive: -0.007.

Regarding FTSJ3 (UniProt Q8IY81), the log2 fold change was inactive: 0.012.

With GDF15 (UniProt Q99988), the log2 fold change was inactive: -0.12.

Consider FXR1 (UniProt P51114), for which the log2 fold change was inactive: -0.041.

As to FUBP1 isoform 2 (UniProt Q96AE4), the log2 fold change is inactive: -0.027.

Take GAN (UniProt Q9H2C0): the log2 fold change is inactive: -0.041.

For the target GABARAPL2 (UniProt P60520), the log2 fold change is inactive: -0.013.

As for GABPA (UniProt Q06546), the log2 fold change was inactive: -0.008.

For FTSJ1 (UniProt Q9UET6), the log2 fold change was inactive: 0.009.

With GALNT12 (UniProt Q8IXK2), the log2 fold change is inactive: -0.102.

GAGE5 (UniProt Q13069): the log2 fold change was inactive: 0.031.

With FOXP1 (UniProt Q9H334), the log2 fold change is inactive: 0.024.

On to FUCA2 (UniProt Q9BTY2), for which the log2 fold change was inactive: -0.012.

Regarding GARS1 (UniProt P41250), the log2 fold change is inactive: -0.019.

Turning to GEMIN4 (UniProt P57678), the log2 fold change was inactive: 0.019.

In the case of GAK (UniProt O14976), the log2 fold change is inactive: -0.022.

In the case of FOXJ3 (UniProt Q9UPW0), the log2 fold change is inactive: 0.019.

As for GAGE12F (UniProt P0CL80), the log2 fold change is inactive: 0.018.

For the target GCDH (UniProt Q92947), the log2 fold change is inactive: 0.187.

Turning to GADD45GIP1 (UniProt Q8TAE8), the log2 fold change was inactive: -0.01.

For the target GAB2 (UniProt Q9UQC2), the log2 fold change is inactive: -0.036.

Turning to FOXRED2 (UniProt Q8IWF2), the log2 fold change is inactive: -0.058.

For GDPD1 (UniProt Q8N9F7), the log2 fold change was inactive: 0.177.

Regarding GAPDH (UniProt P04406), the log2 fold change is inactive: 0.014.

For GART (UniProt P22102), the log2 fold change was inactive: 0.003.

As to GALNT2 (UniProt Q10471), the log2 fold change was inactive: -0.09.

Regarding GET4 (UniProt Q7L5D6), the log2 fold change is inactive: 0.024.

Consider GALNT11 (UniProt Q8NCW6), for which the log2 fold change was inactive: -0.022.

G3BP2 (UniProt Q9UN86): the log2 fold change was inactive: -0.004.

Compound in another assay: c1cn2cc(-c3ccc4cn[nH]c4c3)nc(Nc3ccc(N4CCOCC4)cc3)c2n1 [entospletinib]
Described as above. An outline of the steps: as §1
For the target GGA2 (UniProt Q9UJY4), the log2 fold change was inactive: -0.026.

For the target FRA10AC1 (UniProt Q70Z53), the log2 fold change was inactive: -0.028.

Consider GDI1 (UniProt P31150), for which the log2 fold change was inactive: -0.002.

Consider GDPGP1 (UniProt Q6ZNW5), for which the log2 fold change was inactive: 0.03.

For the target GCFC2 (UniProt P16383), the log2 fold change is inactive: -0.023.

In the case of GALNT1 (UniProt Q10472), the log2 fold change is inactive: -0.035.

On to FTSJ3 (UniProt Q8IY81), for which the log2 fold change is inactive: -0.043.

FXR1 (UniProt P51114): the log2 fold change was inactive: 0.023.

Consider FUBP1 isoform 2 (UniProt Q96AE4), for which the log2 fold change is inactive: 0.008.

Turning to GAN (UniProt Q9H2C0), the log2 fold change was inactive: 0.002.

Turning to GABARAPL2 (UniProt P60520), the log2 fold change was inactive: 0.024.

Turning to GABPA (UniProt Q06546), the log2 fold change was inactive: -0.001.

As for FTSJ1 (UniProt Q9UET6), the log2 fold change was inactive: 0.05.

Turning to GALNT12 (UniProt Q8IXK2), the log2 fold change was inactive: -0.024.

For the target GAGE5 (UniProt Q13069), the log2 fold change is inactive: -0.201.

With FOXP1 (UniProt Q9H334), the log2 fold change was inactive: -0.018.

On to FUCA2 (UniProt Q9BTY2), for which the log2 fold change was inactive: 0.029.

Take GARS1 (UniProt P41250): the log2 fold change was inactive: -0.007.

With GEMIN4 (UniProt P57678), the log2 fold change was inactive: 0.034.

In the case of GAK (UniProt O14976), the log2 fold change was inactive: 0.076.

FOXJ3 (UniProt Q9UPW0): the log2 fold change was inactive: 0.022.

As to GAGE12F (UniProt P0CL80), the log2 fold change is inactive: -0.241.

On to GCDH (UniProt Q92947), for which the log2 fold change was inactive: 0.046.

With GADD45GIP1 (UniProt Q8TAE8), the log2 fold change was inactive: 0.094.

GAB2 (UniProt Q9UQC2): the log2 fold change is inactive: -0.013.

With FOXRED2 (UniProt Q8IWF2), the log2 fold change was inactive: -0.006.

With GDPD1 (UniProt Q8N9F7), the log2 fold change is inactive: -0.092.

With GAPDH (UniProt P04406), the log2 fold change was inactive: 0.003.

As to GART (UniProt P22102), the log2 fold change is inactive: 0.012.

For the target GALNT2 (UniProt Q10471), the log2 fold change was inactive: -0.034.

On to GET4 (UniProt Q7L5D6), for which the log2 fold change was inactive: 0.025.

As to GALNT11 (UniProt Q8NCW6), the log2 fold change is inactive: -0.024.

Take G3BP2 (UniProt Q9UN86): the log2 fold change is inactive: -0.001.

The record behind these values is the supplement of paper PMC10849652.
